Source: patent US20250352661A1 (MYTHIC THERAPEUTICS, published 2025)
Results are given in words; binding and its absence hold for the method and conditions named. Some results given as binding are weak or reduced against the parent protein; the word gives no strength.

Chains of the proteins cited; added tags and fusions are not shown. Residues count along the entry.
UniProt Q8TF66, residues 22-538: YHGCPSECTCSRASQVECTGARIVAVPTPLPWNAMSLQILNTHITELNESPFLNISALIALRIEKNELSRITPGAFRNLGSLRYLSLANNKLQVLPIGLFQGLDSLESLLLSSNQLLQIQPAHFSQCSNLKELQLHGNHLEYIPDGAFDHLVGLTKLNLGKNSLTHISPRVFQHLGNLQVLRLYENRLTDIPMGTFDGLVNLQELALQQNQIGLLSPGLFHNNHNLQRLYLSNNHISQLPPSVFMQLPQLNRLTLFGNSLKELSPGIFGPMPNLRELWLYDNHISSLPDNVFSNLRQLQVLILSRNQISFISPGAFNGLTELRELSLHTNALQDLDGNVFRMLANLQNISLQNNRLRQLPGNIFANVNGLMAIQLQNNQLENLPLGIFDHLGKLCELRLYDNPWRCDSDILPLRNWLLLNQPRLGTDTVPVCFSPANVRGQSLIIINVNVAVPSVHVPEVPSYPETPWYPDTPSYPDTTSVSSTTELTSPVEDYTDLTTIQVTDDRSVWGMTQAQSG

What was measured:
[1] = target: Human LRRC15 Protein, His Tag (Acro Biosystems) (human) (UniProt Q8TF66); assay: BLI (Octet RED 96e), supernatant on anti-human Fc sensor, 50 nM LRRC15-His, association pH 7.4, dissociation pH 7.4 or 5.4
[2] = target: Human LRRC15 Protein, His Tag (Acro Biosystems) (human) (UniProt Q8TF66); assay: BLI; dissociation pH 7.4 black, pH 5.4 grey [1/2); D00006 FIG. 1E (1/2]
[3] = target: Human LRRC15 Protein, His Tag (Acro Biosystems) (human) (UniProt Q8TF66); assay: BLI (Octet), Ab on anti-human Fc sensor, 50 nM LRRC15 at pH 7.4; dissociation at pH 7.4 or 5.4

Binder	binding [1]	binding [2]	binding [3]
MYT6090 (antibody, V domains shown) VH: QEQLEESGGDLVKPGASLTLTCTASGLDFRRTNYIHWVRQAPGKGLEWIGSIYIADVVHYYASWAKGRFTFSKTSSTTVTLQMTSLTAADTATYFCARGADGGFVYGMDLWGPGTLVTVSS VL: DVVMTQTPASVSEPVGGTVTIKCQASQSIGNYLSWYQQKPGQRPKRLIYSASTLPSGVPSRFKGAGSGTEFTLTISDLESADAATYYCQNNYWLAGYGHPFGGGTEVVVK	binds	binds	–
MYT6091 (antibody, V domains shown) VH: QEQLEESGGDLVKPGASLTLTCTASGLDFRRTNYISWVRQAPGKGLEWIGHIYIADVVHYYASWAKGRFTFSKTSSTTVTLQMTSLTAADTATYFCARGADGGFVYGMDLWGPGTLVTVSS VL: DVVMTQTPASVSEPVGGTVTIKCQASQSIGNYLSWYQQKPGQRPKRLIYSASTLPSGVPSRFKGAGSGTEFTLTISDLESADAATYYCQNNYWLAGYGHPFGGGTEVVVK	binds	binds	–
MYT8510 (antibody, V domains shown) VH: QQQLVESGGGLVKPGASLTLTCKASGFSFSGSYWICWVRQAPGKGLEWIGCHNGGSHDHTYYASWAKGRFTISKASSTTVTLQKTSLTAADTATYFCASDTSYTAYGNFYFNLWGPGTLVTVSS VL: AQVLTQTASPVSAAVGGTVTINCQSSQSVLNNNWLAWYQQKPGQPPKLLIYDASSLASGVPSRFKGSGSGTQFTLTISDLESDDAATYYCQGEFSCGSADCNAFGGGTEVVVKG	–	–	binds
MYT9765 (antibody, V domains shown) VH: QQQLVESGGGLVKPGASLTLTCKASGFSFSGSYWICWVRQAPGKGLEWIGCIHGGSRDITYYASWAKGRFTISKASSTTVTLQKTSLTAADTATYFCASDTSYTAYGNFYFNLWGPGTLVTVSS VL: AQVLTQTASPVSAAVGGTVTINCQSSQSVLNNNWLAWYQQKPGQPPKLLIYDASSLASGVPSRFKGSGSGTQFTLTISDLESDDAATYYCQGEFSCGSADCNAFGGGTEVVVKG	–	–	binds

Second part, the binder after the results:

binding [1]	binding [2]	binding [3]	Binder
–	–	binds	MYT9767 (antibody, V domains shown) VH: QQQLVESGGGLVKPGASLTLTCKASGFSFSGHYWICWVRQAPGKGLEWIGCIHGGSHDITYYASWAKGRFTISKASSTTVTLQKTSLTAADTATYFCASDTSYTAYGNFYFNLWGPGTLVTVSS VL: AQVLTQTASPVSAAVGGTVTINCQSSQSVLNNNWLAWYQQKPGQPPKLLIYDASSLASGVPSRFKGSGSGTQFTLTISDLESDDAATYYCQGEFSCGSADCNAFGGGTEVVVKG
–	–	binds	MYT9769 (antibody, V domains shown) VH: QQQLVESGGGLVKPGASLTLTCKASGFSFSGHYWICWVRQAPGKGLEWIGCIHGGSLDQTYYASWAKGRFTISKASSTTVTLQKTSLTAADTATYFCASDTSYTAYGNFYFNLWGPGTLVTVSS VL: AQVLTQTASPVSAAVGGTVTINCQSSQSVLNNNWLAWYQQKPGQPPKLLIYDASSLASGVPSRFKGSGSGTQFTLTISDLESDDAATYYCQGEFSCGSADCNAFGGGTEVVVKG
–	–	binds	MYT9768 (antibody, V domains shown) VH: QQQLVESGGGLVKPGASLTLTCKASGFSFSGHYWICWVRQAPGKGLEWIGCIHGGSRDITYYASWAKGRFTISKASSTTVTLQKTSLTAADTATYFCASDTSYTAYGNFYFNLWGPGTLVTVSS VL: AQVLTQTASPVSAAVGGTVTINCQSSQSVLNNNWLAWYQQKPGQPPKLLIYDASSLASGVPSRFKGSGSGTQFTLTISDLESDDAATYYCQGEFSCGSADCNAFGGGTEVVVKG
